Assay results reported in the supplement of paper PMC10849652.
Some of the results follow.

Protein sequences, listed by entry. Tags and fused reporters are not part of them. Lines headed by an entry give the natural chain unless they say otherwise; changes in a name come on top.
UniProt P15151: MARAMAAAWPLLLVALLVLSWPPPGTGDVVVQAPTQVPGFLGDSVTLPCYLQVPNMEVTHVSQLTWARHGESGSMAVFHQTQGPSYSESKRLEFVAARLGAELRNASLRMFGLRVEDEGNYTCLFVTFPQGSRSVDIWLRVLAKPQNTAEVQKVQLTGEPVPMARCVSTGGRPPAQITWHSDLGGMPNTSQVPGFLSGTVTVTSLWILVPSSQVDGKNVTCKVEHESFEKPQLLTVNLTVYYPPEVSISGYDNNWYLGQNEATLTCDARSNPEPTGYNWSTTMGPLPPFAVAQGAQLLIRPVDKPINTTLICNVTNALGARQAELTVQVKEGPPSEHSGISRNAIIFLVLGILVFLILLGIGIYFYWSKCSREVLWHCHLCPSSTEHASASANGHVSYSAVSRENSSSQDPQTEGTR
UniProt P53801: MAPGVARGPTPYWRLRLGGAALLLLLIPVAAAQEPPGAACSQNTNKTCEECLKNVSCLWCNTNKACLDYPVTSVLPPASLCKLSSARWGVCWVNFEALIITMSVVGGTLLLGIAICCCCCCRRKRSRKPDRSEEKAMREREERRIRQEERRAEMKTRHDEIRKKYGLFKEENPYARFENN
UniProt Q9H3S7: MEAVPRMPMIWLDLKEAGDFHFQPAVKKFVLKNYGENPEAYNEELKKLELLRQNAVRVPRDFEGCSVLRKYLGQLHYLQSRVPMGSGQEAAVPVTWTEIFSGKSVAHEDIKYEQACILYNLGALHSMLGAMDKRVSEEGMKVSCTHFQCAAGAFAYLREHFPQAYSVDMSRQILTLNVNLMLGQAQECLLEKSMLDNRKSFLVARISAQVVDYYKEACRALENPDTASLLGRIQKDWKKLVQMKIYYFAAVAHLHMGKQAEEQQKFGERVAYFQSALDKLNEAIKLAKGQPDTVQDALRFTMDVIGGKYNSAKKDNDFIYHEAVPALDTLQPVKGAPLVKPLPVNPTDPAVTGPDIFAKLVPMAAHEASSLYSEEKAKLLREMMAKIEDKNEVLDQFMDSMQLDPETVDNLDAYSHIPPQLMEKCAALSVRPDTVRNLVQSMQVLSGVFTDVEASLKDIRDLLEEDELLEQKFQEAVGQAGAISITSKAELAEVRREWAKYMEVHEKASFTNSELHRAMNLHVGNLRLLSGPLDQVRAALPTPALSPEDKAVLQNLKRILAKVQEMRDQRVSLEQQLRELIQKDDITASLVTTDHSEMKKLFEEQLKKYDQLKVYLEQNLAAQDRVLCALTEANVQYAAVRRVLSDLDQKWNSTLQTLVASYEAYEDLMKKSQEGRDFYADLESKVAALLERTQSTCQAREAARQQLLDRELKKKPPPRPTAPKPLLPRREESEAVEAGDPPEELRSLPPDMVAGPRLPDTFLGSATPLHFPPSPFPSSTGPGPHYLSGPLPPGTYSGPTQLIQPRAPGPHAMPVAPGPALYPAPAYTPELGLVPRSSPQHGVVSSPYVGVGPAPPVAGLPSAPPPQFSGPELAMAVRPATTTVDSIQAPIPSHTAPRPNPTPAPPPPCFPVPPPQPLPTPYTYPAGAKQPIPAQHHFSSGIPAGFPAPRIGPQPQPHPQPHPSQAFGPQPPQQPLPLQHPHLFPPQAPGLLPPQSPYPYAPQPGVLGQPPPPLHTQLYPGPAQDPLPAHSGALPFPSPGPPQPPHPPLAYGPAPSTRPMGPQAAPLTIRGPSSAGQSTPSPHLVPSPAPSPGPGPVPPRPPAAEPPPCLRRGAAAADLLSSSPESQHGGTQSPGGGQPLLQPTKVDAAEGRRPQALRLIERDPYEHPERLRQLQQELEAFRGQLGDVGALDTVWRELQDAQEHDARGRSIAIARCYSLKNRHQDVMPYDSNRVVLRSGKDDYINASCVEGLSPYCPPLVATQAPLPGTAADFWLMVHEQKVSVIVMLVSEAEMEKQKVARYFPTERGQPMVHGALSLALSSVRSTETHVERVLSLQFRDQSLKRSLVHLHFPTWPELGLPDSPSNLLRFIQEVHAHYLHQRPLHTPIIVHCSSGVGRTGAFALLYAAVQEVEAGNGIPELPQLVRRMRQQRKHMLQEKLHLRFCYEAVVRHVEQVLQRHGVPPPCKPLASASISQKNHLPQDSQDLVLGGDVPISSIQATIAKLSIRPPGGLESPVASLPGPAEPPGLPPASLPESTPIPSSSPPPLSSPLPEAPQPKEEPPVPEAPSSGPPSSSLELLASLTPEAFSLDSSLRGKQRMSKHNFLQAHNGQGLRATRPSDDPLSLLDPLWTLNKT
UniProt Q8TB72: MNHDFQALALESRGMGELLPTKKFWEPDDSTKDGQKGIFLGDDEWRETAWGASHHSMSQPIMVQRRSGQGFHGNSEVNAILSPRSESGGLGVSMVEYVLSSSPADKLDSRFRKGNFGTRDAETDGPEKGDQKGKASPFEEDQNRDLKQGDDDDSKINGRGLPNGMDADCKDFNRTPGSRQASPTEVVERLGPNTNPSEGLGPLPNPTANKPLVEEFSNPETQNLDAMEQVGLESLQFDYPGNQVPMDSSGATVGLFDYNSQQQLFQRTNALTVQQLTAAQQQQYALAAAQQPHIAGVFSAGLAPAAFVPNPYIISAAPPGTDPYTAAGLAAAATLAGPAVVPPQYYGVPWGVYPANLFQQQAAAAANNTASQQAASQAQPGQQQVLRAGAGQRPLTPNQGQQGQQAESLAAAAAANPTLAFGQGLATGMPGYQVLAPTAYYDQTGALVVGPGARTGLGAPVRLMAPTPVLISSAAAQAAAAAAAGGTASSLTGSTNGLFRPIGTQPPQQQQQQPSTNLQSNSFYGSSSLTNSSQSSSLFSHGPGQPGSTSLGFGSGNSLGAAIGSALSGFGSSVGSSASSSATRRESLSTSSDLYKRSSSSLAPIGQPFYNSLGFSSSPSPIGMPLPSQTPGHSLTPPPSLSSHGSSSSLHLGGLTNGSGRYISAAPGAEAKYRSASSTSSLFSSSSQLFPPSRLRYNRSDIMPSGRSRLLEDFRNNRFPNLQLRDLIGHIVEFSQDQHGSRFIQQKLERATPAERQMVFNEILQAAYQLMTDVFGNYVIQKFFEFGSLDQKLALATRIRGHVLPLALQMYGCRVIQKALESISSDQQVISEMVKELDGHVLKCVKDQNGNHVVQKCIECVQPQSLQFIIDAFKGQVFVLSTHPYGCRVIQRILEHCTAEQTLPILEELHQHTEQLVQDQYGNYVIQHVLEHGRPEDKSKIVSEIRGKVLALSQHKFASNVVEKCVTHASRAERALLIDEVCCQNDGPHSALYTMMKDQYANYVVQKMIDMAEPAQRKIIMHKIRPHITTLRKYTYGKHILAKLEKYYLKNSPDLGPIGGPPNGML
UniProt P28065: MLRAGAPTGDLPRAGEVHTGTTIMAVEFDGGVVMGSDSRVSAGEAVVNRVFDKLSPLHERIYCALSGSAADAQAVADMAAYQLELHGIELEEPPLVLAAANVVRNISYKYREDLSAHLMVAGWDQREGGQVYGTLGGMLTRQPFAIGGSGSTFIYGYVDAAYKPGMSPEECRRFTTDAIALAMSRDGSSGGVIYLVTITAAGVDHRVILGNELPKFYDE
UniProt P62191: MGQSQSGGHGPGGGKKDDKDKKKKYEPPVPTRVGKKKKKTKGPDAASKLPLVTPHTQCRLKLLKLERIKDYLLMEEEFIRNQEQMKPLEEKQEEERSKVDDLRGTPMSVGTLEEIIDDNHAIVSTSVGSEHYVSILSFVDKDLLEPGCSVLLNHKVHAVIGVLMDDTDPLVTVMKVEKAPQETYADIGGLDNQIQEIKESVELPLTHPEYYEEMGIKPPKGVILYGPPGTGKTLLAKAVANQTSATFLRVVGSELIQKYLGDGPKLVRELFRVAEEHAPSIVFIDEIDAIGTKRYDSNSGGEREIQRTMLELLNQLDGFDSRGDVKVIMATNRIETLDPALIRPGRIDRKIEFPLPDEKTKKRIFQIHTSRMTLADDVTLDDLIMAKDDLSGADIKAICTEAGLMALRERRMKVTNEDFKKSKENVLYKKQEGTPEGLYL
UniProt Q8TBF2: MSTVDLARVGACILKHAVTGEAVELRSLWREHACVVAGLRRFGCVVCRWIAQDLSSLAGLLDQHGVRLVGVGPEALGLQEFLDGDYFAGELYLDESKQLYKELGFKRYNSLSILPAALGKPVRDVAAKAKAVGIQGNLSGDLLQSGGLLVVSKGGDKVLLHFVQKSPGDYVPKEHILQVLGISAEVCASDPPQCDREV
UniProt P25786: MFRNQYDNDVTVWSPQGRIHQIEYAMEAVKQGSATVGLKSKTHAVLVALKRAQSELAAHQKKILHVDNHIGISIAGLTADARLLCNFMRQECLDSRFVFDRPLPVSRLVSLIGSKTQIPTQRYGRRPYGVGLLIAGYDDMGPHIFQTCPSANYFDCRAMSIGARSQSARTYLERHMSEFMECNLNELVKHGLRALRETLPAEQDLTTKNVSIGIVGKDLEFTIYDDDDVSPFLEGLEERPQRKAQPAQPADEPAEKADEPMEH
UniProt P40306: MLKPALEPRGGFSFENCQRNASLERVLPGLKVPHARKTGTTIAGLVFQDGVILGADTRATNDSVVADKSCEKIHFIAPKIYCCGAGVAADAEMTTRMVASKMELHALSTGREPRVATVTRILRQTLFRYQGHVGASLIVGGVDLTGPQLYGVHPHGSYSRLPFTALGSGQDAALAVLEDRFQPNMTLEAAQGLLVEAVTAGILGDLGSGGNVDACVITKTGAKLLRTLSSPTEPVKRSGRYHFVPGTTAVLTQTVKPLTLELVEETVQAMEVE
UniProt Q92530: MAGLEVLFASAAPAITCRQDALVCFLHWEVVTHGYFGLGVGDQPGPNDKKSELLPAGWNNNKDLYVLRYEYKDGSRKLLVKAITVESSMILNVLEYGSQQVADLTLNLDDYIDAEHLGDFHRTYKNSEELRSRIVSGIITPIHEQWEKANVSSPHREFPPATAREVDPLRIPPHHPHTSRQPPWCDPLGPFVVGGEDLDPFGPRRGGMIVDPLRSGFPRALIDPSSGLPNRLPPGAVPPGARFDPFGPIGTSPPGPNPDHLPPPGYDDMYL
UniProt Q8N8N7: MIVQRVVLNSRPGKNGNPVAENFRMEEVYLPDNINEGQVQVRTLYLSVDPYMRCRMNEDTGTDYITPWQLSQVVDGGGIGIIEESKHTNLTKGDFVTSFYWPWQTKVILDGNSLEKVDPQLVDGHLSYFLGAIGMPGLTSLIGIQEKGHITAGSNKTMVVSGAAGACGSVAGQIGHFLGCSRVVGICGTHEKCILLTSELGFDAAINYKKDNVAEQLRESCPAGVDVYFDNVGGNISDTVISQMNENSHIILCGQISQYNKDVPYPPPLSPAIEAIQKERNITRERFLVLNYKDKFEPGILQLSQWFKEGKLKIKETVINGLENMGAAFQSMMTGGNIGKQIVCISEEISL
UniProt Q9BVG9: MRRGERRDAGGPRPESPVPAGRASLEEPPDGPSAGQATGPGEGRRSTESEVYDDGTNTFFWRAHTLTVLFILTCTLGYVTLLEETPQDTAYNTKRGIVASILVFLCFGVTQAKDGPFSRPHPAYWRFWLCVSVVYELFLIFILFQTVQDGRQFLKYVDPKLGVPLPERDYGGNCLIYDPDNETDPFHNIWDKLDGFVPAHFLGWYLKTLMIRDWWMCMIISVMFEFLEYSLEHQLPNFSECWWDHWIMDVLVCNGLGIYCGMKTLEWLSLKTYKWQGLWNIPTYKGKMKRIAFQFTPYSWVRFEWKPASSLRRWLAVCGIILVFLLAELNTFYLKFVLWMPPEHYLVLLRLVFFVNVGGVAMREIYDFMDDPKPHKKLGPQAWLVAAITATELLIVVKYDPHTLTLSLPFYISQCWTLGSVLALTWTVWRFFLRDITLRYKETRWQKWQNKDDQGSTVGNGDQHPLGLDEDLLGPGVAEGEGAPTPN
UniProt Q93096: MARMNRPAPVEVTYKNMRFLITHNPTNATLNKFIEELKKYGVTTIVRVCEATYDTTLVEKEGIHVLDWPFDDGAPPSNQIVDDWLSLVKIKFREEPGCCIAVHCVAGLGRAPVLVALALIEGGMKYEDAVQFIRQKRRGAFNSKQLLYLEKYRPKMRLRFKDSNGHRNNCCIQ
UniProt Q15257: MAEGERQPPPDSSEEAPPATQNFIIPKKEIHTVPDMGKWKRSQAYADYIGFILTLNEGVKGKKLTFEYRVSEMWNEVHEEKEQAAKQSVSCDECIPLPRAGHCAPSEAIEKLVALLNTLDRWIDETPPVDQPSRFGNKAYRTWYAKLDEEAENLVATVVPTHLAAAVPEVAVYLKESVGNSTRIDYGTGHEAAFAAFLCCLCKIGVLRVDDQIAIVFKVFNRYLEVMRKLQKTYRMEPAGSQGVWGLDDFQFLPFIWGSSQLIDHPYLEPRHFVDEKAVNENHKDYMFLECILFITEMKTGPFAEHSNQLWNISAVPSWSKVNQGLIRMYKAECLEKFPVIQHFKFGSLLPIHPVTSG
UniProt P28074: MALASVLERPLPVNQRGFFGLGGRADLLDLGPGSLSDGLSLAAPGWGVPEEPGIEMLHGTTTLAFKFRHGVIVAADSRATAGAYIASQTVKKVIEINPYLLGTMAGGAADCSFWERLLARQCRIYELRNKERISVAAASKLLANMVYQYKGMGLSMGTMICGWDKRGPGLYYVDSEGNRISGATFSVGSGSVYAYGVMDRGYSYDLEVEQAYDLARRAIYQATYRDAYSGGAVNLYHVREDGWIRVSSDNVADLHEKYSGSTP

Tests used:
Test in all cases: log2 fold change, soluble protein after heating vs DMSO (PISA); higher = thermal stabilisation; K562 lysate, 10 uM; active = over 0.2 and 3.5 SD of the protein, either way, in both replicates (recomputed)
vemurafenib = compound: CCCS(=O)(=O)Nc1ccc(F)c(C(=O)c2c[nH]c3ncc(-c4ccc(Cl)cc4)cc23)c1F [vemurafenib]
Summary of the method: (§1)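 Dounce homogenisation of K562 pellets in PBS pH 7.4 with 1 mM MgCl2 produced a crude extract, used at 1 mg/mL protein. Exposure to 10 μM compound lasted 30 min, and aliquots were then heated for 3 min across 48°C-58°C, pooled and brought to 0.5% NP-40 at 4°C. The supernatant after 21,000xg for 90 min was quantified by TMTpro 16plex LC-MS/MS with channel sums equalised. Duplicate values are given as log-two fold change in thermal stability relative to solvent controls.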

[1] = compound: CCCS(=O)(=O)Nc1ccc(F)c(C(=O)c2c[nH]c3ncc(Cl)cc23)c1F
Summary of the method: as §1

barasertib = compound: CCN(CCCOc1ccc2c(Nc3cc(CC(=O)Nc4cccc(F)c4)[nH]n3)ncnc2c1)CCOP(=O)(O)O [barasertib]
Summary of the method: as §1

[2] = compound: CC[C@@H]1C(=O)N(C)c2cnc(Nc3ccc(C(=O)NC4CCN(C)CC4)cc3OC)nc2N1C1CCCC1
Summary of the method: as §1

volasertib = compound: CC[C@@H]1C(=O)N(C)c2cnc(Nc3ccc(C(=O)N[C@H]4CC[C@H](N5CCN(CC6CC6)CC5)CC4)cc3OC)nc2N1C(C)C [volasertib]
Summary of the method: as §1

[3] = compound: CCn1c(C(=O)N(C2CC2)C2CC2)cc2c3c(ncn3C)c(Nc3cc(C)n(C)n3)nc21
Summary of the method: as §1

[4] = compound: CCn1cc(-c2ccnc3[nH]c(-c4cccc(CN(C)C)c4)cc23)c(-c2ccc(NC(=O)N(C)C)cc2)n1
Summary of the method: as §1

[5] = compound: CN1CCC(CNc2ccc3ncc(-c4cccc(OC(F)(F)F)c4)n3n2)CC1
Summary of the method: as §1

saracatinib = compound: CN1CCN(CCOc2cc(OC3CCOCC3)c3c(Nc4c(Cl)ccc5c4OCO5)ncnc3c2)CC1 [saracatinib]
Summary of the method: as §1

sotrastaurin = compound: CN1CCN(c2nc(C3=C(c4c[nH]c5ccccc45)C(=O)NC3=O)c3ccccc3n2)CC1 [sotrastaurin]
Summary of the method: as §1

Row | Target | log2 fold change (vemurafenib) | log2 fold change [1] | log2 fold change (barasertib) | log2 fold change [2] | log2 fold change (volasertib) | log2 fold change [3] | log2 fold change [4] | log2 fold change [5] | log2 fold change (saracatinib) | log2 fold change (sotrastaurin)
1 | PVR (UniProt P15151) | inactive: 0.084 | inactive: -0.032 | inactive: -0.028 | inactive: 0.144 | inactive: -0.007 | inactive: -0.001 | inactive: -0.031 | inactive: 0.107 | inactive: -0.005 | inactive: 0.004
2 | PTTG1IP (UniProt P53801) | inactive: 0.108 | inactive: -0.005 | inactive: -0.043 | inactive: 0.084 | inactive: -0.038 | inactive: 0.129 | inactive: -0.217 | inactive: 0.344 | inactive: -0.178 | inactive: 0.221
3 | PTPN1 (UniProt P18031) | inactive: 0.04 | inactive: -0.005 | inactive: 0.042 | inactive: -0.029 | inactive: -0.04 | inactive: 0.033 | inactive: -0.061 | inactive: -0.03 | inactive: 0.022 | inactive: 0.069
4 | PRPSAP2 (UniProt O60256) | inactive: 0.003 | inactive: -0.008 | inactive: -0.039 | inactive: 0.031 | inactive: 0.015 | inactive: 0.001 | inactive: 0 | inactive: 0.087 | inactive: 0.053 | inactive: -0.011
5 | PTPN23 (UniProt Q9H3S7) | inactive: -0.008 | inactive: 0 | inactive: 0.003 | inactive: -0.006 | inactive: -0.042 | inactive: 0.026 | inactive: -0.017 | inactive: 0.007 | inactive: 0.008 | inactive: -0.001
6 | PTPRA (UniProt P18433) | inactive: 0.013 | inactive: 0.029 | inactive: 0.057 | inactive: 0.028 | inactive: -0.043 | inactive: -0.019 | inactive: 0.052 | inactive: 0.013 | inactive: 0.014 | inactive: 0.015
7 | PUM1 isoform 3 (UniProt Q14671) | inactive: -0.07 | inactive: 0.013 | inactive: 0.068 | inactive: 0.031 | inactive: -0.063 | inactive: 0.03 | inactive: 0.045 | inactive: -0.084 | inactive: 0.039 | inactive: 0.016
8 | PSME2 (UniProt Q9UL46) | inactive: 0.012 | inactive: -0.012 | inactive: -0.038 | inactive: 0.012 | inactive: 0.02 | inactive: 0.001 | inactive: -0.034 | inactive: 0.156 | inactive: -0.003 | inactive: -0.002
9 | PSMD8 (UniProt P48556) | inactive: -0.022 | inactive: 0.023 | inactive: 0.042 | inactive: -0.058 | inactive: -0.04 | inactive: 0.034 | inactive: -0.017 | inactive: 0.064 | inactive: -0.003 | inactive: -0.019
10 | PTMS (UniProt F5GXR3) | inactive: 0.052 |  |  |  |  |  |  |  |  | 
11 | PUM2 (UniProt Q8TB72) | inactive: -0.039 | inactive: 0.007 | inactive: 0.213 | inactive: 0.134 | inactive: -0.04 | inactive: 0.171 | inactive: 0.094 | inactive: -0.13 | inactive: -0.085 | inactive: -0.022
12 | PSMB9 (UniProt P28065) | inactive: -0.105 | inactive: 0.037 | inactive: 0.158 | active: 0.335 | inactive: 0.028 | inactive: -0.06 | inactive: -0.165 | inactive: 0.027 | inactive: 0.037 | inactive: 0.018
13 | PSMC1 (UniProt P62191) | inactive: 0.006 | inactive: 0.028 | inactive: 0.003 | inactive: -0.037 | inactive: -0.028 | inactive: 0.048 | inactive: 0.103 | inactive: 0 | inactive: -0.015 | inactive: 0.005
14 | PRXL2B isoform 3 (UniProt Q8TBF2) | inactive: 0.011 | inactive: 0.041 | inactive: -0.097 | inactive: -0.006 | inactive: -0.021 | inactive: 0.036 | inactive: -0.131 | inactive: 0.109 | inactive: -0.008 | inactive: -0.015
15 | PSMA1 isoform 2 (UniProt P25786) | inactive: 0.026 | inactive: -0.01 | inactive: -0.06 | inactive: 0.028 | inactive: 0.051 | inactive: -0.03 | inactive: -0.06 | inactive: 0.04 | inactive: -0.009 | inactive: -0.006
16 | PSMG3 (UniProt Q9BT73) | inactive: 0.012 | inactive: 0.016 | inactive: 0.016 | inactive: 0.033 | inactive: 0.018 | inactive: 0.003 | inactive: 0.105 | inactive: -0.027 | inactive: -0.037 | inactive: -0.012

Row | Target | log2 fold change (vemurafenib) | log2 fold change [1] | log2 fold change (barasertib) | log2 fold change [2] | log2 fold change (volasertib) | log2 fold change [3] | log2 fold change [4] | log2 fold change [5] | log2 fold change (saracatinib) | log2 fold change (sotrastaurin)
17 | PTBP1 (UniProt P26599) | inactive: 0.031 | inactive: 0.039 | inactive: -0.009 | inactive: 0.018 | inactive: -0.013 | inactive: -0.025 | inactive: 0.036 | inactive: -0.013 | inactive: 0.008 | inactive: -0.016
18 | PSMC3 (UniProt E9PLG2) | inactive: -0.088 |  |  |  |  |  |  |  |  | 
19 | PSMB10 (UniProt P40306) | inactive: 0.15 | inactive: 0.082 | inactive: 0.024 | inactive: -0.039 | inactive: -0.073 | inactive: 0.093 | inactive: -0.094 | inactive: 0.041 | inactive: 0.136 | inactive: 0.016
20 | PTPN7 isoform 3 (UniProt P35236) | inactive: 0.016 | inactive: 0.06 | inactive: 0.026 | inactive: -0.025 | inactive: -0.06 | inactive: 0.063 | inactive: -0.076 | inactive: 0.124 | inactive: 0.005 | inactive: 0.015
21 | PSMF1 (UniProt Q92530) | inactive: 0.025 | inactive: -0.016 | inactive: 0.064 | inactive: 0.097 | inactive: 0.025 | inactive: 0.049 | inactive: -0.219 | inactive: 0.149 | inactive: 0 | inactive: -0.047
22 | PSMA7 (UniProt O14818) | inactive: -0.007 | inactive: -0.038 | inactive: -0.03 | inactive: 0.014 | inactive: 0.018 | inactive: -0.009 | inactive: 0.015 | inactive: -0.039 | inactive: 0.004 | inactive: 0.006
23 | PTPN11 isoform 1 (UniProt Q06124) | inactive: -0.019 | inactive: 0.005 | inactive: 0.006 | inactive: 0.013 | inactive: -0.015 | inactive: 0.041 | inactive: 0.01 | inactive: 0.022 | inactive: -0.015 | inactive: 0.015
24 | PTGR2 (UniProt Q8N8N7) | inactive: -0.029 | inactive: 0.04 | inactive: -0.022 | inactive: 0.056 | inactive: -0.039 | inactive: 0.069 | inactive: 0.012 | inactive: 0.092 | inactive: -0.021 | inactive: 0.1
25 | PTDSS2 (UniProt Q9BVG9) | inactive: -0.056 | inactive: 0.013 | inactive: 0.032 | inactive: -0.074 | inactive: -0.027 | inactive: -0.034 | inactive: -0.228 | inactive: 0.084 | inactive: 0.063 | inactive: 0.039
26 | PTP4A1 (UniProt Q93096) | inactive: -0.006 | inactive: -0.029 | inactive: -0.041 | inactive: 0.017 | inactive: 0.036 | inactive: 0.019 | inactive: 0.177 | inactive: -0.05 | inactive: 0.001 | inactive: 0
27 | PTPA isoform 2 (UniProt Q15257) | inactive: 0.013 | inactive: -0.01 | inactive: -0.002 | inactive: -0.008 | inactive: 0.015 | inactive: -0.024 | inactive: -0.108 | inactive: 0.051 | inactive: 0.015 | inactive: 0.007
28 | PSIP1 (UniProt O75475) | inactive: 0.037 | inactive: 0.001 | inactive: -0.027 | inactive: 0.046 | inactive: 0 | inactive: 0.012 | inactive: 0.008 | inactive: -0.004 | inactive: -0.012 | inactive: 0.023
29 | PUM3 (UniProt Q15397) | inactive: 0.04 | inactive: 0.04 | inactive: 0.034 | inactive: -0.022 | inactive: 0.011 | inactive: -0.031 | inactive: -0.014 | inactive: 0.003 | inactive: 0.011 | inactive: 0.021
30 | PSMB5 (UniProt P28074) | inactive: -0.019 | inactive: -0.014 | inactive: -0.02 | inactive: 0.022 | inactive: 0.024 | inactive: -0.014 | inactive: -0.004 | inactive: 0.033 | inactive: -0.01 | inactive: 0.003
31 | PSMA5 (UniProt P28066) | inactive: 0.016 | inactive: -0.007 | inactive: 0.04 | inactive: 0.033 | inactive: 0.032 | inactive: -0.025 | inactive: -0.017 | inactive: 0.039 | inactive: 0.006 | inactive: 0.009

9 entries from above, with tabs:
Row	Target	log2 fold change (vemurafenib)	log2 fold change [1]	log2 fold change (barasertib)	log2 fold change [2]	log2 fold change (volasertib)	log2 fold change [3]	log2 fold change [4]	log2 fold change [5]	log2 fold change (saracatinib)	log2 fold change (sotrastaurin)
17	PTBP1 (UniProt P26599)	inactive: 0.031	inactive: 0.039	inactive: -0.009	inactive: 0.018	inactive: -0.013	inactive: -0.025	inactive: 0.036	inactive: -0.013	inactive: 0.008	inactive: -0.016
18	PSMC3 (UniProt E9PLG2)	inactive: -0.088									
19	PSMB10 (UniProt P40306)	inactive: 0.15	inactive: 0.082	inactive: 0.024	inactive: -0.039	inactive: -0.073	inactive: 0.093	inactive: -0.094	inactive: 0.041	inactive: 0.136	inactive: 0.016
20	PTPN7 isoform 3 (UniProt P35236)	inactive: 0.016	inactive: 0.06	inactive: 0.026	inactive: -0.025	inactive: -0.06	inactive: 0.063	inactive: -0.076	inactive: 0.124	inactive: 0.005	inactive: 0.015
21	PSMF1 (UniProt Q92530)	inactive: 0.025	inactive: -0.016	inactive: 0.064	inactive: 0.097	inactive: 0.025	inactive: 0.049	inactive: -0.219	inactive: 0.149	inactive: 0	inactive: -0.047
22	PSMA7 (UniProt O14818)	inactive: -0.007	inactive: -0.038	inactive: -0.03	inactive: 0.014	inactive: 0.018	inactive: -0.009	inactive: 0.015	inactive: -0.039	inactive: 0.004	inactive: 0.006
23	PTPN11 isoform 1 (UniProt Q06124)	inactive: -0.019	inactive: 0.005	inactive: 0.006	inactive: 0.013	inactive: -0.015	inactive: 0.041	inactive: 0.01	inactive: 0.022	inactive: -0.015	inactive: 0.015
24	PTGR2 (UniProt Q8N8N7)	inactive: -0.029	inactive: 0.04	inactive: -0.022	inactive: 0.056	inactive: -0.039	inactive: 0.069	inactive: 0.012	inactive: 0.092	inactive: -0.021	inactive: 0.1
25	PTDSS2 (UniProt Q9BVG9)	inactive: -0.056	inactive: 0.013	inactive: 0.032	inactive: -0.074	inactive: -0.027	inactive: -0.034	inactive: -0.228	inactive: 0.084	inactive: 0.063	inactive: 0.039
